± gives the uncertainty stated by the source. The uncertainty is large for many entries.
Experiment: self-splicing fitness, log relative to wild type (ln ratio); higher = more splicing; Tetrahymena group I intron in knt gene, E. coli kanamycin selection, DiMSum; sequences stand for … in CUCUCU…GGAGGGAAAAGUUAUCAGGCAUGCACCUGGUAGCUAGUCUUUAAACCAAUAGAUUGCAUCGGUUUAAAAGGCAAGACCGUCAAAUUGCGGGAAAGGGGUCAACAGCCGUUCAGUACCAAGUCUCAGGGGAAACUUUGAGAUGGCCUUGCAAAGGGUAUGGUAAUAAGCUGACGGACAUGGUCCUAACCACGCAGCCAAGUCCUAAGUCAACAGAUCUUCUGUUGAUAUGGAUGCAGUUCACAGACUAAAUGUCGGUCGGGGAAGAUGUAUUCUUCUCAUAAGAUAUAGUCGGACCUCUCCUUAAUGGGAGCUAGCGGAUGAAGUGAUGCAACACUGGAGCCGCUGGGAACUAAUUUGUAUGCGAAAGUAUAUUGAUUAGUUUUGGAGUACUCGUGGUCG
How it was run: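 Pooled colonies went to amplicon sequencing on an Illumina HiSeq 2500 after six replicate transformations. The plates were LB agar with 100 μg/mL carbenicillin, 50 μM IPTG and 0.2% rhamnose, with or without 25 μg/mL kanamycin, incubated overnight at 37°C or 30°C. The E. coli BL21(DE3) library had all eight P1ex-region intron nucleotides randomised, the intron placed in the knt kanamycin-resistance gene on pET-22b(+). DiMSum fitness is the error-weighted combination of replicate fold changes, kanamycin against none, normalised to wild type.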

In the case of UAAGAGCAAUAUUACGGGGG, the “self-splicing fitness (ln)” value (37 °C) is reported as -2.98 ± 0.53.

For CCCGAGCAAUAUUACGACAC, the “self-splicing fitness (ln)” value (37 °C) was -2.13 ± 0.63.

In the case of CUCAAGCAAUAUUACGAGCA, the “self-splicing fitness (ln)” value (30 °C) is reported as -3.51 ± 0.52.

For GGGUAGCAAUAUUACGCUGC, the “self-splicing fitness (ln)” value (30 °C) was -4.21 ± 1 and the “self-splicing fitness (ln)” value (37 °C) was -2.71 ± 0.76.

In the case of GGCGAGCAAUAUUACGCUGG, the “self-splicing fitness (ln)” value (37 °C) is reported as -2.29 ± 0.64.

In the case of UGAGAGCAAUAUUACGAAAA, the “self-splicing fitness (ln)” value (30 °C) is reported as -3.75 ± 0.62.

With CAGAAGCAAUAUUACGACCU the “self-splicing fitness (ln)” value (30 °C) was -2.86 ± 0.4 and the “self-splicing fitness (ln)” value (37 °C) was 0.0264 ± 0.23.

With GUGGAGCAAUAUUACGCAAC the “self-splicing fitness (ln)” value (30 °C) was -2.53 ± 0.77 and the “self-splicing fitness (ln)” value (37 °C) was -1.39 ± 1.2.

In the case of UCGGAGCAAUAUUACGGCAA, the “self-splicing fitness (ln)” value (37 °C) is reported as -2.2 ± 0.64.

In the case of GGCUAGCAAUAUUACGAGUC, the “self-splicing fitness (ln)” value (30 °C) is reported as -3.39 ± 0.61.

For CAAGAGCAAUAUUACGCCUA, the “self-splicing fitness (ln)” value (30 °C) was -3.75 ± 1.

In the case of CCAGAGCAAUAUUACGCCUU, the “self-splicing fitness (ln)” value (30 °C) is reported as -3.57 ± 0.25 and the “self-splicing fitness (ln)” value (37 °C) is reported as -2.37 ± 0.25.

In the case of CCUAAGCAAUAUUACGCUUA, the “self-splicing fitness (ln)” value (30 °C) is reported as -3.09 ± 0.18 and the “self-splicing fitness (ln)” value (37 °C) is reported as -1.97 ± 0.29.

With GCAUAGCAAUAUUACGGCAG the “self-splicing fitness (ln)” value (30 °C) was -2.5 ± 0.91 and the “self-splicing fitness (ln)” value (37 °C) was -3.09 ± 0.52.

For UGCGAGCAAUAUUACGGAUC, the “self-splicing fitness (ln)” value (30 °C) was -3.37 ± 0.75 and the “self-splicing fitness (ln)” value (37 °C) was -2.55 ± 0.76.

In the case of AGUGAGCAAUAUUACGCUCA, the “self-splicing fitness (ln)” value (30 °C) is reported as -3.31 ± 0.74.

In the case of AUUGAGCAAUAUUACGGACC, the “self-splicing fitness (ln)” value (37 °C) is reported as -0.845 ± 0.92.

For AAAGAGCAAUAUUACGAACC, the “self-splicing fitness (ln)” value (30 °C) was -2.36 ± 0.59.

In the case of GGUUAGCAAUAUUACGCAAU, the “self-splicing fitness (ln)” value (37 °C) is reported as -1.52 ± 0.61.

For UACAAGCAAUAUUACGAUCA, the “self-splicing fitness (ln)” value (30 °C) was -0.336 ± 0.079 and the “self-splicing fitness (ln)” value (37 °C) was 0.387 ± 0.11.

With GCUGAGCAAUAUUACGCUGA the “self-splicing fitness (ln)” value (30 °C) was -2.99 ± 0.2 and the “self-splicing fitness (ln)” value (37 °C) was -1.15 ± 0.17.

With GGAGAGCAAUAUUACGGAAA the “self-splicing fitness (ln)” value (30 °C) was -2.33 ± 0.78 and the “self-splicing fitness (ln)” value (37 °C) was -2.91 ± 0.59.

With GGUAAGCAAUAUUACGAGGA the “self-splicing fitness (ln)” value (30 °C) was -3.59 ± 0.54.

In the case of UCGUAGCAAUAUUACGCUUA, the “self-splicing fitness (ln)” value (30 °C) is reported as -3.72 ± 1.

In the case of GCGAAGCAAUAUUACGAGGA, the “self-splicing fitness (ln)” value (30 °C) is reported as -3.45 ± 0.53.

In the case of CUAUAGCAAUAUUACGCCCU, the “self-splicing fitness (ln)” value (30 °C) is reported as -4.16 ± 0.73 and the “self-splicing fitness (ln)” value (37 °C) is reported as -2.3 ± 0.76.

In the case of GAUGAGCAAUAUUACGAAUA, the “self-splicing fitness (ln)” value (30 °C) is reported as -2.91 ± 0.75 and the “self-splicing fitness (ln)” value (37 °C) is reported as -1.37 ± 0.71.

In the case of CACUAGCAAUAUUACGACCC, the “self-splicing fitness (ln)” value (30 °C) is reported as -2.83 ± 0.62 and the “self-splicing fitness (ln)” value (37 °C) is reported as -2 ± 0.69.

In the case of CUCCAGCAAUAUUACGAGGC, the “self-splicing fitness (ln)” value (37 °C) is reported as -4.06 ± 0.72.

With GCAGAGCAAUAUUACGCAUC the “self-splicing fitness (ln)” value (37 °C) was -3.13 ± 0.6.

For AGGGAGCAAUAUUACGAUGC, the “self-splicing fitness (ln)” value (30 °C) was -5.54 ± 1.

In the case of AUAGAGCAAUAUUACGGAGC, the “self-splicing fitness (ln)” value (30 °C) is reported as -3.73 ± 0.59.

For AUUUAGCAAUAUUACGGGAA, the “self-splicing fitness (ln)” value (30 °C) was -2.24 ± 0.26 and the “self-splicing fitness (ln)” value (37 °C) was -1.84 ± 0.19.

In the case of GCCAAGCAAUAUUACGUUUC, the “self-splicing fitness (ln)” value (30 °C) is reported as -2.86 ± 0.18 and the “self-splicing fitness (ln)” value (37 °C) is reported as -0.805 ± 0.12.

With CCGUAGCAAUAUUACGUCAA the “self-splicing fitness (ln)” value (30 °C) was -3.98 ± 0.72.

In the case of GGAUAGCAAUAUUACGAUGC, the “self-splicing fitness (ln)” value (30 °C) is reported as -2.32 ± 0.71 and the “self-splicing fitness (ln)” value (37 °C) is reported as -0.512 ± 0.63.

In the case of AGUGAGCAAUAUUACGUCAC, the “self-splicing fitness (ln)” value (30 °C) is reported as -3.19 ± 0.67 and the “self-splicing fitness (ln)” value (37 °C) is reported as -2.96 ± 0.75.

For AAGCAGCAAUAUUACGCUGU, the “self-splicing fitness (ln)” value (30 °C) was -5.57 ± 0.71.

For GGUGAGCAAUAUUACGGGGA, the “self-splicing fitness (ln)” value (30 °C) was -4.4 ± 1.

In the case of UUUGAGCAAUAUUACGUAAC, the “self-splicing fitness (ln)” value (30 °C) is reported as -2.01 ± 0.5 and the “self-splicing fitness (ln)” value (37 °C) is reported as -1.53 ± 0.69.

For CGAAAGCAAUAUUACGUGCG, the “self-splicing fitness (ln)” value (30 °C) was -1.22 ± 0.076 and the “self-splicing fitness (ln)” value (37 °C) was -0.524 ± 0.097.

With AGGGAGCAAUAUUACGCACC the “self-splicing fitness (ln)” value (30 °C) was -2.71 ± 0.65 and the “self-splicing fitness (ln)” value (37 °C) was -1.2 ± 0.65.

In the case of AUAUAGCAAUAUUACGACCC, the “self-splicing fitness (ln)” value (37 °C) is reported as -0.334 ± 0.56.

In the case of CAUAAGCAAUAUUACGAGAA, the “self-splicing fitness (ln)” value (30 °C) is reported as -3.49 ± 0.53.

With GAAGAGCAAUAUUACGGCCG the “self-splicing fitness (ln)” value (30 °C) was -2.63 ± 0.42 and the “self-splicing fitness (ln)” value (37 °C) was -0.854 ± 0.29.

For CUACAGCAAUAUUACGGAUU, the “self-splicing fitness (ln)” value (30 °C) was -3.46 ± 0.14 and the “self-splicing fitness (ln)” value (37 °C) was -2.5 ± 0.21.
